Data on eleven molecules can be found in patent US20230235080A1, “TROPHOBLAST CELL-SURFACE ANTIGEN-2 (TROP-2) ANTIBODIES” (Bionecure Therapeutics, Inc., priority 2020, published 2023).

No constants are given. Whether binding was seen depends on the method and setting. Some entries that bind do so weakly or less than the wild type.

Assay [1] addresses cynomolgus Trop-2-His (cynomolgus). Briefly: cross-reactivity ELISA on coated antigens.
Assay [2] has the same target. Briefly: ELISA on coated antigen, one antibody dilution (concentration not given), detected by GAH-HRP; y axis without a label (OD450 by the text).
Assay [3] shares this target. Briefly: ELISA, plate coated with 1 ug/mL antigen, HRP goat-anti-human IgG, OD450.
The target is the same in assay [4]. Briefly: ELISA on coated antigen, one antibody dilution (concentration not given), detected by GAH-HRP, OD450nm.
The target is the same in assay [5]. The assay is described as follows: ELISA on coated antigen, one antibody dilution (concentration not given); on the sheet OD405, detected by GAM/H-AP.

B1: humanized IgG #118-2-5 HuA/LuX (antibody, V domains shown)
VH: QVQLQESGPGLVKPSETLSLTCTVSGFSLTSYGVNWIRQPPGKGLEWIGVMWAGGSTNYNSALMSRVTISVDTSKNQFSLKLSSVTAADTAVYYCARDENWDGAWFAYWGQGTLVTVSS
VL: DIVMTQSPDSLAVSLGERATINCKSSQSLLNSGTRKNYLAWYQQKPGQPPKLLIYWASSRESGVPDRFSGSGSGTDFTLTISSLQAEDVAVYYCKQSYNLFTFGGGTKVEIK
notes: Full-length IgG expressed in HEK293-6E cells; also called 1 (HuA/LuX); IgG HuA/LuX
B1: the binding entry in assay [1] and in assay [2] was “binds” each time.

B2: humanized IgG A1,2X4 (antibody, V domains shown)
VH: QVQLQESGPGLVKPSETLSLTCTVSGFSLTSYGVNWIRQPPGKGLEWIGVMWAGGSTNYNSALMSRLTISKDTSKNQFSLKLSSVTAADTAVYYCARDENWDGAWFAYWGQGTLVTVSS
VL: DIVMTQSPDSLAVSLGERATINCKSSQSLLNSGTRKNYLAWYQQKPGQPPKLLISWASSRESGVPDRFSGSGSGTDFTLTISSLQAEDVAVYYCKQSYNLFTFGGGTKVEIKR
notes: Full-length IgG expressed in 293 cells; also called IgG HuA(1,2)/Lu(X4)
B2: the binding entry in assay [3] and in assay [4] was “binds” throughout.

B3: humanized IgG #118-2-5 HuC/LuX (antibody, V domains shown)
VH: QVQLQESGPGLVKPSETLSLTCTVSGFSLTSYGVNWIRQPPGKGLEWIGVMWAGGSTNYNSALMSRLSISKDNSKSQVFLKMNSLQTDDTGMYYCARDENWDGAWFAYWGQGTLVTVSS
VL: DIVMTQSPDSLAVSLGERATINCKSSQSLLNSGTRKNYLAWYQQKPGQPPKLLIYWASSRESGVPDRFSGSGSGTDFTLTISSLQAEDVAVYYCKQSYNLFTFGGGTKVEIK
notes: Full-length IgG expressed in HEK293-6E cells; also called 3 (HuC/LuX)
As for B3, the binding entry in assay [1] and in assay [2] was “binds” in each case.

B4: humanized IgG #118-2-5 HuD/LuX (antibody, V domains shown)
VH: QVQLKESGPGLVAPSETLSITCTVSGFSLTSYGVNWIRQPPGKGLEWLGVMWAGGSTNYNSALMSRLTISKDTSKNQVSLKLSSVQAADTAMYYCARDENWDGAWFAYWGQGTLVTVSS
VL: DIVMTQSPDSLAVSLGERATINCKSSQSLLNSGTRKNYLAWYQQKPGQPPKLLIYWASSRESGVPDRFSGSGSGTDFTLTISSLQAEDVAVYYCKQSYNLFTFGGGTKVEIK
notes: Full-length IgG expressed in HEK293-6E cells; also called 4 (HuD/LuX)
On to B4, for which the binding entry in assay [1] and in assay [2] was “binds” throughout.

B5: humanized IgG #118-2-5 HuB/LuX (antibody, V domains shown)
VH: QVQLKQSGPGLVAPSQSLSITCTVSGFSLTSYGVNWIRQPPGKGLEWIGVMWAGGSTNYNSALMSRVTISVDTSKNQFSLKLSSVTAADTAVYYCARDENWDGAWFAYWGQGTLVTVSS
VL: DIVMTQSPDSLAVSLGERATINCKSSQSLLNSGTRKNYLAWYQQKPGQPPKLLIYWASSRESGVPDRFSGSGSGTDFTLTISSLQAEDVAVYYCKQSYNLFTFGGGTKVEIK
notes: Full-length IgG expressed in HEK293-6E cells; also called 2 (HuB/LuX)
With B5, the binding entry in assay [1] and in assay [2] was “binds” in each case.

B6: humanized IgG #118-2-5 HuB/LuY (antibody, V domains shown)
VH: QVQLKQSGPGLVAPSQSLSITCTVSGFSLTSYGVNWIRQPPGKGLEWIGVMWAGGSTNYNSALMSRVTISVDTSKNQFSLKLSSVTAADTAVYYCARDENWDGAWFAYWGQGTLVTVSS
VL: DIVMTQSPSSLAVSLGERATMSCKSSQSLLNSGTRKNYLAWYQQKPGQPPKLLISWASSRESGVPDRFSGSGSGTDFTLTISSVQAEDLAVYYCKQSYNLFTFGGGTKVEIK
notes: Full-length IgG expressed in HEK293-6E cells; also called 6 (HuB/LuY)
On to B6, for which the binding entry in assay [1] and in assay [2] was “binds” in each case.

B7: humanized IgG #118-2-5 HuC/LuY (antibody, V domains shown)
VH: QVQLQESGPGLVKPSETLSLTCTVSGFSLTSYGVNWIRQPPGKGLEWIGVMWAGGSTNYNSALMSRLSISKDNSKSQVFLKMNSLQTDDTGMYYCARDENWDGAWFAYWGQGTLVTVSS
VL: DIVMTQSPSSLAVSLGERATMSCKSSQSLLNSGTRKNYLAWYQQKPGQPPKLLISWASSRESGVPDRFSGSGSGTDFTLTISSVQAEDLAVYYCKQSYNLFTFGGGTKVEIK
notes: Full-length IgG expressed in HEK293-6E cells; also called 7 (HuC/LuY)
With B7, the binding entry in assay [1] and in assay [2] was “binds” throughout.

B8: humanized IgG #118-2-5 HuA/LuY (antibody, V domains shown)
VH: QVQLQESGPGLVKPSETLSLTCTVSGFSLTSYGVNWIRQPPGKGLEWIGVMWAGGSTNYNSALMSRVTISVDTSKNQFSLKLSSVTAADTAVYYCARDENWDGAWFAYWGQGTLVTVSS
VL: DIVMTQSPSSLAVSLGERATMSCKSSQSLLNSGTRKNYLAWYQQKPGQPPKLLISWASSRESGVPDRFSGSGSGTDFTLTISSVQAEDLAVYYCKQSYNLFTFGGGTKVEIK
notes: Full-length IgG expressed in HEK293-6E cells
In the case of B8, the binding entry in assay [1] and in assay [2] was “binds” each time.

B9: murine-human chimeric IgG1 #118-2-5 (antibody, V domains shown)
VH: QVQLKQSGPGLVAPSQSLSITCTVSGFSLTSYGVNWIRQPPGKGLEWLGVMWAGGSTNYNSALMSRLSISKDNSKSQVFLKMNSLQTDDTGMYYCARDENWDGAWFAYWGQGTLVTVSA
VL: DIQMTQSPSSLAVSAGEKVTMSCKSSQSLLNSGTRKNYLAWYQQKPGQSPKLLISWASSRESGVPDRFTGSGSGTDFTLTISSVQAEDLAVYYCKQSYNLFTFGGGTKLELKR
notes: Chimeric IgG1 expressed in HEK293-6E cells
Consider B9, for which the binding entry in assay [3] and in assay [5] was “binds” in each case.

B10: #118-2-5 mouse H4-2/L3-3 (antibody, V domains shown)
VH: QVQLKQSGPGLVAPSQSLSITCTVSGFSLTSYGVNWIRQPPGKGLEWLGVMWAGGSTNYNSALMSRLSISKDNSKSQVFLKMNSLQTDDTGMYYCARDENWDGAWFAYWGQGTLVTVS
VL: DIQMTQSPSSLAVSAGEKVTMSCKSSQSLLNSGTRKNYLAWYQQKPGQSPKLLISWASSRESGVPDRFTGSGSGTDFTLTISSVQAEDLAVYYCKQSYNLFTFGGGTKLELK
notes: The label H4-2/L3-3 is not explained
On to B10, for which, in assay [2], the binding entry is recorded as “binds”.

B11: humanized IgG #118-2-5 HuD/LuY (antibody, V domains shown)
VH: QVQLKESGPGLVAPSETLSITCTVSGFSLTSYGVNWIRQPPGKGLEWLGVMWAGGSTNYNSALMSRLTISKDTSKNQVSLKLSSVQAADTAMYYCARDENWDGAWFAYWGQGTLVTVSS
VL: DIVMTQSPSSLAVSLGERATMSCKSSQSLLNSGTRKNYLAWYQQKPGQPPKLLISWASSRESGVPDRFSGSGSGTDFTLTISSVQAEDLAVYYCKQSYNLFTFGGGTKVEIK
notes: Full-length IgG expressed in HEK293-6E cells; also called 8 (HuD/LuY)
B11: the binding entry in assay [1], in assay [2] and in assay [4] was “binds” throughout.
